Here are results for one substance from paper PMC8544320.

Protein sequences, listed by entry. Tags and fused reporters are not part of them.
UniProt Q86U44: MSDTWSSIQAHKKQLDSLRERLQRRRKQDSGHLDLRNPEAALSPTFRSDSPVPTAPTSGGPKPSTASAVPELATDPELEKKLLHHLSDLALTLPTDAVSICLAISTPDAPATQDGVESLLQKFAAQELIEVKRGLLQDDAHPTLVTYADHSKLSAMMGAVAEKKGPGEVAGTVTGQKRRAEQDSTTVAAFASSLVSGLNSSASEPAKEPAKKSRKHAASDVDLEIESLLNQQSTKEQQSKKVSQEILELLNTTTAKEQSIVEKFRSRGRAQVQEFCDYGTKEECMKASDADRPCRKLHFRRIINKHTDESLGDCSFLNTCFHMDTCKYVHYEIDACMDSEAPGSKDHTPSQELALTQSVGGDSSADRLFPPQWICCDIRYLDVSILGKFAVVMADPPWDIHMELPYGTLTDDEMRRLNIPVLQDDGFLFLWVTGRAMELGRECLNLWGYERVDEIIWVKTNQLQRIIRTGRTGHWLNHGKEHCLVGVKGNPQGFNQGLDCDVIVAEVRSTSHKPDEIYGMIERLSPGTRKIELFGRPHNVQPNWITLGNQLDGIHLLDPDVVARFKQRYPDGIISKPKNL

No constants are given. Whether binding was seen depends on the method and setting. In cells and extracts the contact can be indirect. Some entries that bind do so weakly or less than the wild type.

For the assay, the target named is T1, PIWIL4 (human) (UniProt Q7Z3Z4).
T1 sequence: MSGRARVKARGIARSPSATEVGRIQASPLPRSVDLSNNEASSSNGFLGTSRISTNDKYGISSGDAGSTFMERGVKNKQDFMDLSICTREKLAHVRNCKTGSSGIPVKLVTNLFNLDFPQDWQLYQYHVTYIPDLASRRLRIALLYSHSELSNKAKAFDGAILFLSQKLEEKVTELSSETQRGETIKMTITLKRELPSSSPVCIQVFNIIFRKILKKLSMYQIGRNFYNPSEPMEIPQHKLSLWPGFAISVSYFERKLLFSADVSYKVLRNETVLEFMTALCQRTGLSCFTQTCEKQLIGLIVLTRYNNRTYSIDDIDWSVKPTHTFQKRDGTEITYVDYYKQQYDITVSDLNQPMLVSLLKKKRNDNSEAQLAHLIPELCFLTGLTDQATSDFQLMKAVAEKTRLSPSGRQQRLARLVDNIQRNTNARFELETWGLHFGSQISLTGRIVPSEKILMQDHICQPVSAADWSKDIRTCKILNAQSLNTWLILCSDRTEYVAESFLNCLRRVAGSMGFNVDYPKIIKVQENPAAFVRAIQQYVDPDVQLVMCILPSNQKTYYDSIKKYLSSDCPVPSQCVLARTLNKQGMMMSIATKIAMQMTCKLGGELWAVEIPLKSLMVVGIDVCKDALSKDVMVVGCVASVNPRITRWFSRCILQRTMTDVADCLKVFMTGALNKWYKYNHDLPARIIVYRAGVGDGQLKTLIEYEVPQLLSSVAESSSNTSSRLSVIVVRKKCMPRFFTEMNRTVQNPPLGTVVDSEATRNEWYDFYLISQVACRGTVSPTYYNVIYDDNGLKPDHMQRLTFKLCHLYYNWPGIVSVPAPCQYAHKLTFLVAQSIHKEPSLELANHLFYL
The assay is described as follows: co-IP; BMSCs transfected with METTL3 and PIWIL4 overexpression vectors; lysate incubated overnight at 4°C with anti-METTL3 or anti-PIWIL4 antibody, Protein A/G Plus-Agarose beads; Western blot with METTL3 or PIWIL4 antibodies; homotypic IgG as negative control. A general note: In western blotting, separated proteins are transferred to a membrane and probed.

For the substance “METTL3 (methyltransferase like 3) (from UniProt Q86U44 1-580) (enzyme)”, the binding result is listed as “binds”.
